Experiment [1] has as its target GST-ALG-2^WT (wild-type ALG-2 fused to GST-tag) (mouse) (UniProt P12815). Nature of the experiment: pull-down; GST-pulldown: purified His-SOUL (5 µM) and GST-ALG-2 (5 µM) with Glutathione Sepharose 4B in buffer B (100 mM Tris-HCl pH 7.5, 100 mM NaCl, 10% glycerol) with 20 µM CaCl2 (or various amounts of Ca2+), 30 min at 4 °C; SDS-PAGE, Coomassie; both purified.
For experiment [2] the target is unchanged. Nature of the experiment: pull-down; GST-pulldown as a1 but with 1 mM EGTA instead of Ca2+; both purified.
A further experiment concerns the target T1, GST-ALG-2^W57A (mouse) (UniProt P12815).
T1 sequence: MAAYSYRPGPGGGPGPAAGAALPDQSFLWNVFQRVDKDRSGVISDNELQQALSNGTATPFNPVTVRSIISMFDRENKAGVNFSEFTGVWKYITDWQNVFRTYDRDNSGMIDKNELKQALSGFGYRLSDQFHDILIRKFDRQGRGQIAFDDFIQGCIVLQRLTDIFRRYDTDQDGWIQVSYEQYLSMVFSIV
Kind of experiment: pull-down; GST-pulldown: purified His-SOUL (5 µM) and GST-ALG-2 (5 µM) with Glutathione Sepharose 4B in buffer B (100 mM Tris-HCl pH 7.5, 100 mM NaCl, 10% glycerol) with 20 µM CaCl2 (or various amounts of Ca2+), 30 min at 4 °C; SDS-PAGE, Coomassie; both purified.

Experiment [3] deals with T2, delta3-23ALG-2^W57A (mouse) (UniProt P12815).
T2 sequence: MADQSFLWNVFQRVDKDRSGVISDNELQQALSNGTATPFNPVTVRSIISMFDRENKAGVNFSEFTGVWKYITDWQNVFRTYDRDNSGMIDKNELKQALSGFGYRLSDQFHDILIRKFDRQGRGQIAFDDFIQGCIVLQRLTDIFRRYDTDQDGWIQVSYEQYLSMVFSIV
Nature of the experiment: condition: 130 µM injected into 5 µM (conditions of Figure 3C); ITC; His-SOUL (130 or 260 µM) injected into delta3-23ALG-2 (5 or 10 µM); 25 °C, pH 7.5, buffer C (25 mM HEPES, 150 mM NaCl, 10% glycerol) with 15 µM CaCl2 and 0.25% Tween 20; one-set-of-sites model (sequential-binding-sites model also tried); both purified.

In experiment [4] the target is delta3-23ALG-2^WT (mouse) (UniProt P12815). The experiment is described as above.

Results are given in words; binding and its absence hold for the method and conditions named. Some results given as binding are weak or reduced against the parent protein; the word gives no strength. Where a sequence is shown, tags or fusion partners need not be part of it.

B1: His-SOUL102-205 (domain or fragment, UniProt Q9WU63 102-205)
chain: ESTITISLYIPSEQQPDPPRPSESDVFIEDRAEMTVFVRSFDGFSSGQKNQEQLLTLANILREEGKVFNEKVFYTAGYSSPFQLLDRNNEVWLIQKNEPSVENK
As to B1, in experiment [1], the binding result was “binds weakly”.

B2: His-SOUL^WT (wild-type SOUL fused to His-tag) (protein, UniProt Q9WU63 1-205)
chain: MAEEPEPDLGVAEGSEDQALEMPSWKAPEDIDPQPGSYEIRHYGPAKWVSTCVESLDWDSAIQTGFTKLNGYIQGKNEKEMKIKLTAPVTSYVEPGSSPFSESTITISLYIPSEQQPDPPRPSESDVFIEDRAEMTVFVRSFDGFSSGQKNQEQLLTLANILREEGKVFNEKVFYTAGYSSPFQLLDRNNEVWLIQKNEPSVENK
B2: the binding result in experiment [2] is recorded as “no binding (condition: with 1 mM EGTA)”; in the experiment with GST-ALG-2^W57A (mouse), “no binding (tested: 5 µM each)”; in experiment [3] it was “no binding”.

B3: His-SOUL^F100A (protein, UniProt Q9WU63 1-205)
chain: MAEEPEPDLGVAEGSEDQALEMPSWKAPEDIDPQPGSYEIRHYGPAKWVSTCVESLDWDSAIQTGFTKLNGYIQGKNEKEMKIKLTAPVTSYVEPGSSPASESTITISLYIPSEQQPDPPRPSESDVFIEDRAEMTVFVRSFDGFSSGQKNQEQLLTLANILREEGKVFNEKVFYTAGYSSPFQLLDRNNEVWLIQKNEPSVENK
With B3, the binding entry is listed as “no binding (tested: 5 µM each)” in experiment [1] and “no binding” in experiment [4].

The values are drawn from publication PMC6321638.
